{
  "sequences": {"note": "The chains behind the UniProt entries cited, without tags or fusion partners.", "UniProt Q24572": "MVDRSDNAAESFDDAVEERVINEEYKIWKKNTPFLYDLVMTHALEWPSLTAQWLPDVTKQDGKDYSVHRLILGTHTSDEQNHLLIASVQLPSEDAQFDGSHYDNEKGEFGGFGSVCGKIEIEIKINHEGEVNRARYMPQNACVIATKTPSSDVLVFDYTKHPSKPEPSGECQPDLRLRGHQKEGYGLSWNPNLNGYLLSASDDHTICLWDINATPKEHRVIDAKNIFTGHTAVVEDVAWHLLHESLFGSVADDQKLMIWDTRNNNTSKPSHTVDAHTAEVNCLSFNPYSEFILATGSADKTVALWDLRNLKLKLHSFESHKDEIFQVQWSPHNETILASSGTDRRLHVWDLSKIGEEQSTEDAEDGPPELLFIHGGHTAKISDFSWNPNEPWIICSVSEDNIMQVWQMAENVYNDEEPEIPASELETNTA"},
  "source": "paper PMC5963871",
  "binders": {"B1": {"name": "Drosophila Ash1_(1041-2226) (Ash1C) (domain or fragment, UniProt Q9VW15 1041-2226)", "chain": "TNQKAPRLSVVALERLQRPQTPARGRPRGRKPKNREQAEAAPQPPPKSEPEIRPAKKRGRQPKQPVLEEPPPTPPPQQKKNKMEPNIRLPDGIDPNTNFSCKIRLKRRKNLEAGTQPKKEKPVQPVTVEEIPPEIPVSQEEIDAEAEAKRLDSIPTEHDPLPASESHNPGPQDYASCSESSEDKASTTSLRKLSKVKKTYLVAGLFSNHYKQSLMPPPAKVNKKPGLEEQVGPASLLPPPPYCEKYLRRTEMDFELPYDIWWAYTNSKLPTRNVVPSWNYRKIRTNVYAESVRPNLAGFDHPTCNCKNQGEKSCLDNCLNRMVYTECSPSNCPAGEKCRNQKIQRHAVAPGVERFMTADKGWGVRTKLPIAKGTYILEYVGEVVTEKEFKQRMASIYLNDTHHYCLHLDGGLVIDGQRMGSDCRFVNHSCEPNCEMQKWSVNGLSRMVLFAKRAIEEGEELTYDYNFSLFNPSEGQPCRCNTPQCRGVIGGKSQRVKPLPAVEAKPSGEGLSGRNGRQRKQKAKKHAQRQAGKDISSAVAVAKLQPLSEKEKKLVRQFNTFLVRNFEKIRRCKAKRASDAAATASSPALGTTNGDIPGRRPSTPSSPSLAAQISALCSPRNIKTRGLTQAVHDPELEKMAKMAVVLRDICSAMETLKMSDLLTTVSSKKKKPIKTTLSGKLGSTAATSKVEFRSIQAQVEQGHYKTPQEFDDHMQQLFVEAKQQHGDDEGKEKALQSLKDSYEQQKIASYVQLVEILGDSESLQSFKPKEVLSSEEEPGKIAVKKSPGAKERDSPIVPLKVTPPPLLPIEASPDEDVIRCICGLYKDEGLMIQCSKCMVWQHTECTKADIDADNYQCERCEPREVDREIPLEEFTEEGHRYYLSLMRGDLQVRQGDAVYVLRDIPIKDESGKVLPTKKHTYETIGAIDYQECDIFRVEHLWKNELGKRFIFGHHFLRPHETFHEPSRRFYPNEVVRVSLYEVVPIELVIGRCWVLDRTTFCKGRPMECNDEDHCYICELRVDKTARFFSKAKANHPACTKSYAFRKFPEKIKISKSYAPHDVDPSLLKTRKQKTELDVGAGPTTMHKVSGRQEQHQAKMVGRKPRGISAPADATAVHVVTPVAPNKQMLKKRKSRLENVLITMKLKCLDAQTAQEQPIDLSYLLSGRGARQRKTQQSSSSSTANST"}, "B2": {"name": "Drosophila full-length MRG15 (E. coli) (protein, UniProt Q9Y0I1 1-424)", "chain": "MGEVKPAKVENYSTGTDANTLFVDGERVLCFHGPLIYEAKVLKTKPDATPVEYYIHYAGWSKNWDEWVPENRVLKYNDDNVKRRQELARQCGERSKKDNKKGSAKAKKMEQMRNESRASTPSKDSNTSQSTASSTPTTSAGPGSKSEAGSTGTTTTNSTANSTTSRAHRKSTQSTPSTARPGTPSDKKEDPAAAETTEEEGPVAPKKKRMSEQRPSLTGSDVAEKPLPPTTTPSTPTTEPAPCVESEEAYAAKVEVKIKIPDELKHYLTDDWYAVVREHKLLELPAKVTVQQISEQYLAHKKSVKSTSASKEVAINDVLDGIVEYFNVMLGSQLLYKFERTQYADVMQKHPDTPLSELYGSFHLLRLFVRLGSMLSYSALDQQSMQNLLTHVQDFLKFLVKNSSIFFSMSNFINVDPEYVRNAQ"}, "B3": {"name": "Ash1C^R1464A (domain or fragment, UniProt Q9VW15 1041-2226)", "chain": "B1 chain with R424A"}},
  "key": {"[1]": {"biological_target": "T1, Strep-tagged full-length MRG15 (S-MRG15) (Drosophila) (UniProt Q9Y0I1)", "T1 sequence": "B2 chain", "assay": "pull-down; His-affinity (Ni-NTA) purification from Hi-5 cells co-expressing H-Caf1, MRG15 and Ash1C; 20 mM Tris-HCl pH 8, 300 mM KCl, 5 mM imidazole; elution with 250 mM imidazole; Coomassie Blue-stained gel"}, "[2]": {"biological_target": "His-tagged Caf1 (H-Caf1) (Drosophila) (UniProt Q24572)", "assay": "pull-down; His-affinity (Ni-NTA) purification from Hi-5 cells co-expressing H-Caf1, MRG15 and Ash1C; 20 mM Tris-HCl pH 8, 300 mM KCl, 5 mM imidazole; elution with 250 mM imidazole; Coomassie Blue-stained gel"}, "[3]": {"biological_target": "Strep-tagged Caf1 (S-Caf1) (Drosophila) (UniProt Q24572)", "assay": "pull-down; Strep-Tactin affinity purification from Hi-5 cells co-expressing the proteins (baculovirus); lysis and washes in 20 mM Tris-HCl pH 8, 300 mM KCl, 2 mM MgCl2, 15% glycerol, 0.1% NP-40 substitute; elution with 5 mM d-desthiobiotin; Coomassie Blue-stained gel"}, "[4]": {"biological_target": "T1, Strep-tagged full-length MRG15 (S-MRG15) (Drosophila)", "assay": "pull-down; Strep-Tactin affinity purification from Hi-5 cells co-expressing the proteins (baculovirus); lysis and washes in 20 mM Tris-HCl pH 8, 300 mM KCl, 2 mM MgCl2, 15% glycerol, 0.1% NP-40 substitute; elution with 5 mM d-desthiobiotin; Coomassie Blue-stained gel"}, "[5]": {"biological_target": "T2, Drosophila Ash1_(XL-SET) (Ash1_(1275-1522)) (Drosophila) (UniProt Q9VW15)", "T2 sequence": "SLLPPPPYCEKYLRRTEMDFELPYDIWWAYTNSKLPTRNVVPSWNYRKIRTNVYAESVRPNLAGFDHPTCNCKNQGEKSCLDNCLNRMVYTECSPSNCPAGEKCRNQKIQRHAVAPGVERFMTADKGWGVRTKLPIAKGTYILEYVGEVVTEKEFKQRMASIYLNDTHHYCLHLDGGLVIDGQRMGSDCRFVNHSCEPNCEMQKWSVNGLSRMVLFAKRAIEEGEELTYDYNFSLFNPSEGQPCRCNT", "assay": "pull-down; co-expression in E. coli BL21 (RILP); complex purified on Ni-NTA by the N-terminal 6xHis tag of the Ash1/ASH1L fragment, TEV cleavage, ion exchange and size exclusion chromatography in 50 mM Tris HCl pH 8.0, 100 mM NaCl"}},
  "note": "Positions count from the first letter of the chain named. Names may count otherwise. Results are given in words; binding and its absence hold for the method and conditions named. Binding seen in cells or lysates may run through a third protein. Some binding calls cover weakened binding; strength is not graded here. For part of these data: Tags and fused reporters may be left off the sequences shown.",
  "data": [
    {"binder": "B1", "values": [
      {"measurement": "binding", "setting": "[1]", "result": "binds"},
      {"measurement": "binding", "setting": "[2]", "result": "binds"},
      {"measurement": "binding", "setting": "[3]", "result": "binds"},
      {"measurement": "binding", "setting": "[4]", "result": "binds"}
    ]},
    {"binder": "B2", "values": [
      {"measurement": "binding", "setting": "[5]", "result": "binds"}
    ]},
    {"binder": "B3", "values": [
      {"measurement": "binding", "setting": "[4]", "result": "binds"}
    ]}
  ]
}
